Experimental data from US9649324B2, “Use of tylvalosin as antiviral agent” (ECO ANIMAL HEALTH LIMITED, priority 2006, dated 2017).
At least one compound was matched to its structure with a doubt left.

System: HRT-18 cells
Assay: Intracellular accumulation of macrolides in HRT-18 cells
Format: in vitro ADME, human
Details: 4 h, all three initial concentrations (0.5, 5, 50 μg/mL)
Protocol: HRT-18 cells, in 6 cm tissue cultures dishes, were incubated in the presence of 0.5, 5 or 50 μg/mL tylvalosin. After 4 h, two dishes for each tylvalosin concentration and two dishes without antibiotic were removed from the incubator. A sample of medium (about 1 mL) was removed, placed in a labelled Eppendorf tube and stored at −20° C. The rest of the medium was then removed. Each of the cell monolayers was washed twice in PBS, using approximately 5 mL for each wash. The plunger from a 2 mL plastic syringe was used to gently scrape off the cells. PBS (500 μL) was added to the dish and the cells gently removed into this medium, using a micropipette. The sample was then placed in an Eppendorf tube and centrifuged at 8000×g in a bench centrifuge (Biofuge pico, Heraeus instruments) for 13 sec. An obvious cell pellet formed. The supernatant was removed using a micropipette and the cell material was stored at −20° C. in a labelled Eppendorf tube. After approximately 24 h the remaining tissue culture dishes were removed from the incubator and treated as described above for the 4 h samples. All the samples, including the 4 h samples, were then stored at −70° C.
HRT-18 cells were prepared as described above and used at passage 42. […]

## CCC1OC(=O)CC(OC(C)=O)C(C)C(OC2OC(C)C(OC3CC(C)(O)C(OC(=O)CC(C)C)C(C)O3)C(N(C)C)C2O)C(CC=O)CC(C)C(=O)C=CC(C)=CC1COC1OC(C)C(O)C(OC)C1OC (stereo not shown) [tylvalosin, 3-O acetyl-4″-O-isovaleryltylosin]
  cell:medium concentration ratio: approximately 1:12
